Measurements reported in PubChem BioAssay (NCATS).
This list holds what a sample rich in hits left over. Inconclusive results are not listed. The source made the active and inactive calls. Unless noted, calls follow the shape of the dose curve; as a rule, active = well fitted curve in the direction sought with a large enough effect; inconclusive = small, poorly fitted or top-dose-only effect, or another doubt; inactive = no such curve, though single readings can be large; an effect the other way counts as inactive or inconclusive.

Columns and labels:
[1] = molecular target: Mitogen-activated protein kinase 10 (Mus musculus) (UniProt Q61831); assay: JNK3 AlphaScreen Assay (AID 530; active = well fitted curve in either direction with a large enough effect, not every such curve was filed as active;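 also: kinase came from lysate of stimulated human HepG2 cells; signal reports phosphorylation of biotinylated GST-cJun 1-79 at Ser73 with 10 µM ATP; % is scaled to controls: 0 for no effect and ±100 for the full control effect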); details: JNK3 lysate, c-Jun phosphorylation; at 57.1 µM (top of the series)
In short: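 qHTS titrations with 15 min compound pre-incubation before adding ATP (10 uM final). Read-out: AlphaScreen of Ser73-phosphorylated biotin-GST-cJun using HepG2 lysate JNK3 activated by IL-1β and TNFα.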

[2] = Cell Viability - N2a (AID 540); details: N2a mouse neuroblastoma cell viability; at 92.2 µM (top of the series);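 also: plate controls were DMSO alone for no effect and tamoxifen control for full effect; nearly all actives have a fitted effect of over 45% in size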
In short: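 CellTiter-Glo ATP luminescence, read 20 min after reagent at room temperature, reported viability following 40 h compound treatment at 37 °C. N2a mouse neuroblastoma cells seeded 1500/well; Hill equation gave AC50.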

[3] = Cell Viability - NIH 3T3 (AID 541); details: NIH 3T3 cell viability, qHTS; at 92.2 µM (top of the series);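 also: cells exposed to compound for 40 hours; plate controls were DMSO alone for no effect and tamoxifen positive control for full effect; nearly all actives have a fitted effect of over 25% in size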
In short: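 Intracellular ATP (CellTiter-Glo luminescence, 20 min at room temperature) measured after 40 hr compound exposure at 37 °C of 1000 NIH 3T3 mouse fibroblasts/well in complete medium; AC50 derived by Hill-equation modelling of qHTS concentration-response curves.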

[4] = Cell Viability - HUV-EC-C (AID 542); details: HUV-EC-C endothelial cell viability, qHTS; at 92.2 µM (top of the series);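 also: cells exposed to compound for 40 hours; % is scaled to controls: 0 for no effect and ±100 for the full control effect; nearly all actives have a fitted effect of over 35% in size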
In short: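 CellTiter-Glo luminescence measured ATP loss in HUV-EC-C cells (1000/well) after 40 hr compound exposure at 37 °C, in complete culture medium. Concentration-response data were Hill-fitted to give AC50.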

[5] = Cell Viability - H-4-II-E (AID 543); details: H-4-II-E rat hepatoma viability; at 92.2 µM (top of the series);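 also: cells exposed to compound for 40 hours; % is scaled to controls: 0 for no effect and ±100 for the full control effect; nearly all actives have a fitted effect of over 35% in size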
In short: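 CellTiter-Glo luminescence (intracellular ATP) measured after 40 h compound exposure at 37 °C in H-4-II-E rat hepatoma cells seeded at 1500/well. Values are AC50s fitted with the standard Hill equation.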

[6] = Cell Viability - SH-SY5Y (AID 544); details: SH-SY5Y neuroblastoma cell viability; at 92.2 µM (top of the series);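 also: cells exposed to compound for 40 hours; 0% = DMSO alone and -100% = 100 µM tamoxifen; nearly all actives have a fitted effect of over 55% in size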
In short: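 Cytotoxicity measured via ATP-dependent luciferase luminescence (CellTiter-Glo) following 40 h, 37 °C exposure of 1500 SH-SY5Y cells per well. Concentration-response data were fitted with the standard Hill equation to give AC50.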

[7] = Cell Viability - Renal Proximal Tubule (AID 545); details: renal proximal tubule cells viability, primary cells of rat origin; at 91.7 µM (top of the series);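 also: cells exposed to compound for 40 hours; 0% = DMSO only and -100% = 100 µM tamoxifen; nearly all actives have a fitted effect of over 40% in size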
In short: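 Luminescent ATP signal (CellTiter-Glo) served as the viability read-out after 40 hr compound exposure of freshly isolated rat proximal tubule cells at 37 °C. Concentration-dependent ATP loss was fitted with the Hill equation to give AC50.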

[8] = Cell Viability - Mesenchymal (AID 546); details: mesenchymal cells viability, qHTS; at 91.7 µM (top of the series);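 also: cells exposed to compound for 40 hours before reading; 0% = DMSO only and -100% = 100 µM tamoxifen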
In short: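 CellTiter-Glo luminescence (intracellular ATP, 20 min room temperature) after 40 hr compound exposure at 37 °C of 1000 glomerulus-derived human kidney mesenchymal cells/well; AC50 values obtained by fitting qHTS concentration-response data to the Hill equation.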

[9] = Cell Viability - LYMP2-001 (AID 921); details: LYMP2-001 lymphoblastoid cell viability; at 92.2 µM (top of the series);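 also: cells exposed to compound for 24 h at 37 °C; 0% = DMSO only and full inhibition = tetraoctylammonium bromide control wells; nearly all actives have a fitted effect of over 70% in size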
In short: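 Steps: seed 2500 lymphoblastoid cells/well; 5 hr, 37 C; add compound; 24 hr, 37 C; CellTiter-Glo reagent, 30 min room temperature; read luminescence. Concentration-response modeled by Hill equation for AC50.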

[10] = Cell Viability - LYMP1-002 - Assay at 16 hr (AID 948); details: LYMP1-002 lymphoblastoid cell viability; at 92.2 µM (top of the series);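 also: 0% = DMSO alone and full effect = 92 µM tetraoctylammonium bromide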
In short: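 Seed 2500 LYMP1-002 cells per well in complete medium and hold 5 hr at 37 C. Add compound across a concentration series and incubate 16 hr at 37 C. Add CellTiter-Glo, wait 30 min at room temperature, read luminescence.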

Cc1ccc2ccccc2c1C
inactive: activity change, negative = inhibition [1] -18.7% | activity change, negative = cytotoxicity [2] 0.275% | activity change, negative = cytotoxicity [3] 4.85% | activity change, negative = cytotoxicity [4] 5.79% | activity change, negative = cytotoxic [5] 1.08% | viability change, negative = cytotoxic [6] -0.00573% | activity change, negative = cytotoxicity [7] -4.75% | activity change, negative = cytotoxicity [8] 0.684% | activity change, negative = cytotoxic [9] -0.723% | activity change, negative = cytotoxicity [10] 1.86%

O=[N+]([O-])c1ccccc1Cl
inactive: activity change, negative = cytotoxicity [2] -3.97% | activity change, negative = cytotoxicity [3] -7.44% | activity change, negative = cytotoxicity [4] -6.25% | activity change, negative = cytotoxic [5] -0.391% | viability change, negative = cytotoxic [6] 4.6% | activity change, negative = cytotoxicity [7] 1.25% | activity change, negative = cytotoxicity [8] 1.66% | activity change, negative = cytotoxicity [10] -4.72%

Cc1ccc(O)cc1C
inactive: activity change, negative = inhibition [1] 15.5% | activity change, negative = cytotoxicity [2] -5.53% | activity change, negative = cytotoxicity [3] -27.2% | activity change, negative = cytotoxicity [4] -15.2% | activity change, negative = cytotoxic [5] -7.94% | viability change, negative = cytotoxic [6] -21.8% | activity change, negative = cytotoxicity [7] -5.07% | activity change, negative = cytotoxicity [8] 0.459% | activity change, negative = cytotoxic [9] 14.1% | activity change, negative = cytotoxicity [10] 2.53%

Oc1c(Cl)cc(Cl)cc1Cl
inactive: activity change, negative = cytotoxicity [2] -7.14% | activity change, negative = cytotoxicity [4] 7.11% | activity change, negative = cytotoxic [5] -15.2% | viability change, negative = cytotoxic [6] -25.1% | activity change, negative = cytotoxicity [7] -3.28% | activity change, negative = cytotoxicity [8] -4.26% | activity change, negative = cytotoxic [9] 4.88% | activity change, negative = cytotoxicity [10] -6.51%
